Assay results from doi:10.1101/299552.
These are yes or no findings as the source states them, for the method shown.

What was measured:
[1] = target: T1, TetR-KDM2B (UniProt Q6P1G2); assay: TetR tethering to a TetO array with ChIP-qPCR
T1 sequence: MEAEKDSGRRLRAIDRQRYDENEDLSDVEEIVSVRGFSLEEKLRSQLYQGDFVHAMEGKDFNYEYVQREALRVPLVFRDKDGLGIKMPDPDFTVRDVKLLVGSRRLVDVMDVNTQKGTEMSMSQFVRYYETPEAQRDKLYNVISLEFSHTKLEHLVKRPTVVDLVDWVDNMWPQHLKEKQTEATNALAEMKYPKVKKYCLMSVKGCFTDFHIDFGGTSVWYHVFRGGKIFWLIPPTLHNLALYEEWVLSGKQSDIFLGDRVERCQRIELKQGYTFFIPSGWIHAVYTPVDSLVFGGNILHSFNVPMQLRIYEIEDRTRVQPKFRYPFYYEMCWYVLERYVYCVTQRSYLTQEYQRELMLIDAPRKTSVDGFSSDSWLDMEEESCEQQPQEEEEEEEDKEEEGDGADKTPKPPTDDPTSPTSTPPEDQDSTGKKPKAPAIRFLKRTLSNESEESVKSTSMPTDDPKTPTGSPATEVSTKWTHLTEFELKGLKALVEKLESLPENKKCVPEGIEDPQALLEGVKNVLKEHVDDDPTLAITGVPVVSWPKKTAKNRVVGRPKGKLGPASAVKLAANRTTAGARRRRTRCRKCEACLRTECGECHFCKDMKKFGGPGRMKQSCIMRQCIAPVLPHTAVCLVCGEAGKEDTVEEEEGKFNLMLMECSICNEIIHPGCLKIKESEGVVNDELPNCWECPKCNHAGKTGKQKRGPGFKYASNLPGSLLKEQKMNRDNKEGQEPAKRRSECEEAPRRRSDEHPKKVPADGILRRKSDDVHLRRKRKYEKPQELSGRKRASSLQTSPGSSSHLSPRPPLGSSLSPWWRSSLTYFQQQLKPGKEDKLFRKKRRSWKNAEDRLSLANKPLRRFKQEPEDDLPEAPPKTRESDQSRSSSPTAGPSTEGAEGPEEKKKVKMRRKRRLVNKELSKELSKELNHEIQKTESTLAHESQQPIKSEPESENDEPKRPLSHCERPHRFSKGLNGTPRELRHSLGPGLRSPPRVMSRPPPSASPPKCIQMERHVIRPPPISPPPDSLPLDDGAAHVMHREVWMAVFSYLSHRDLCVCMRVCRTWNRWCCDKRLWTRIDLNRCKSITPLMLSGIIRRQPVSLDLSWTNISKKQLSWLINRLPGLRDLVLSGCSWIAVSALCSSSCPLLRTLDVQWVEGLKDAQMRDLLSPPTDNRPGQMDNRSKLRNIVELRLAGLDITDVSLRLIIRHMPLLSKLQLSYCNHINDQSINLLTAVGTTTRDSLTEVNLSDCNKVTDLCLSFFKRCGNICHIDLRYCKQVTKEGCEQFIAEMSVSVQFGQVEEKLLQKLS

[2] = target: T2, TetR-KDM2A (UniProt P59997); assay: TetR tethering to a TetO array with ChIP-qPCR
T2 sequence: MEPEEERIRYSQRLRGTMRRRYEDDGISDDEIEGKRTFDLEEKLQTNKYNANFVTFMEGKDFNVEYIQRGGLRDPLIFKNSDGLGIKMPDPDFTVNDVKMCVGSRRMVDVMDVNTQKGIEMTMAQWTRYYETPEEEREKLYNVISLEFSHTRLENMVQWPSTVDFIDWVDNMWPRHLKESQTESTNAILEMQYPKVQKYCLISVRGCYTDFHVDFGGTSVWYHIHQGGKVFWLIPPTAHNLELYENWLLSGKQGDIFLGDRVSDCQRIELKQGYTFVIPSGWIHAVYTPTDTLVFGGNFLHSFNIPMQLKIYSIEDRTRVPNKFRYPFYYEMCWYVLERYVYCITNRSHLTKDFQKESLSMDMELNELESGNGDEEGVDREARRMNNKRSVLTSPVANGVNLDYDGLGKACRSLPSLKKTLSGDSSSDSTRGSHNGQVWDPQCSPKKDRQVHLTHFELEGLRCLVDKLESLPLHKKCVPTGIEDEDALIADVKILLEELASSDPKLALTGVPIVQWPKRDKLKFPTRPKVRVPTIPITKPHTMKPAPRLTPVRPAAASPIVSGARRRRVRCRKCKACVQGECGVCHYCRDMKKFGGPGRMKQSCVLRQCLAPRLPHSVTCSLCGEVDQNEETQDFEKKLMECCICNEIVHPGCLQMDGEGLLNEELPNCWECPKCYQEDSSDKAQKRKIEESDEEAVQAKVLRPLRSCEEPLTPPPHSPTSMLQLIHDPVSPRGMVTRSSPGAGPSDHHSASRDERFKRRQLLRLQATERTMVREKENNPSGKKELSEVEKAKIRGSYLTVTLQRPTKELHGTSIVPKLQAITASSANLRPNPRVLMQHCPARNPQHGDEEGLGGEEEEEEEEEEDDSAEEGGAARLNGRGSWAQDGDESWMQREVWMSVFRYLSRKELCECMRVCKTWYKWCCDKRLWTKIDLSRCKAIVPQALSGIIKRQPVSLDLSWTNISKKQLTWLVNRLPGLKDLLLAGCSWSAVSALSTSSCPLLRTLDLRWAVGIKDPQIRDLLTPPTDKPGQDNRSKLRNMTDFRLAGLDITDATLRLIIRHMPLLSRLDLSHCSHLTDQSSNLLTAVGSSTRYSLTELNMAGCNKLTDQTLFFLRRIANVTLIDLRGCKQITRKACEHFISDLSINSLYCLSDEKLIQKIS

- binding [1]: no binding
- binding [2]: no binding
B1: CDK8 (protein, UniProt Q8R3L8 1-464)
chain: MDYDFKVKLSSERERVEDLFEYEGCKVGRGTYGHVYKAKRKDGKDDKDYALKQIEGTGISMSACREIALLRELKHPNVISLLKVFLSHADRKVWLLFDYAEHDLWHIIKFHRASKANKKPVQLPRGMVKSLLYQILDGIHYLHANWVLHRDLKPANILVMGEGPERGRVKIADMGFARLFNSPLKPLADLDPVVVTFWYRAPELLLGARHYTKAIDIWAIGCIFAELLTSEPIFHCRQEDIKTSNPYHHDQLDRIFNVMGFPADKDWEDIKKMPEHSTLMKDFRRNTYTNCSLIKYMEKHKVKPDSKAFHLLQKLLTMDPIKRITSEQAMQDPYFLEDPLPTSDVFAGCQIPYPKREFLTEEEPDEKGDKKTQQQQQGNNHTNGTGHPGNQDSGHAQGPPLKKVRVVPPTTTSGGLIMTSDYQRSNPHAAYPNPGPSTSQPQSSMGYSATSQQPPQYSHQTHRY
